The record followed here is the supplement of paper PMC10849652.

The chains behind the UniProt entries cited, without tags or fusion partners. Where a name states a change or a piece, a line headed by the entry shows the natural chain unless it says otherwise.
UniProt Q9NR96: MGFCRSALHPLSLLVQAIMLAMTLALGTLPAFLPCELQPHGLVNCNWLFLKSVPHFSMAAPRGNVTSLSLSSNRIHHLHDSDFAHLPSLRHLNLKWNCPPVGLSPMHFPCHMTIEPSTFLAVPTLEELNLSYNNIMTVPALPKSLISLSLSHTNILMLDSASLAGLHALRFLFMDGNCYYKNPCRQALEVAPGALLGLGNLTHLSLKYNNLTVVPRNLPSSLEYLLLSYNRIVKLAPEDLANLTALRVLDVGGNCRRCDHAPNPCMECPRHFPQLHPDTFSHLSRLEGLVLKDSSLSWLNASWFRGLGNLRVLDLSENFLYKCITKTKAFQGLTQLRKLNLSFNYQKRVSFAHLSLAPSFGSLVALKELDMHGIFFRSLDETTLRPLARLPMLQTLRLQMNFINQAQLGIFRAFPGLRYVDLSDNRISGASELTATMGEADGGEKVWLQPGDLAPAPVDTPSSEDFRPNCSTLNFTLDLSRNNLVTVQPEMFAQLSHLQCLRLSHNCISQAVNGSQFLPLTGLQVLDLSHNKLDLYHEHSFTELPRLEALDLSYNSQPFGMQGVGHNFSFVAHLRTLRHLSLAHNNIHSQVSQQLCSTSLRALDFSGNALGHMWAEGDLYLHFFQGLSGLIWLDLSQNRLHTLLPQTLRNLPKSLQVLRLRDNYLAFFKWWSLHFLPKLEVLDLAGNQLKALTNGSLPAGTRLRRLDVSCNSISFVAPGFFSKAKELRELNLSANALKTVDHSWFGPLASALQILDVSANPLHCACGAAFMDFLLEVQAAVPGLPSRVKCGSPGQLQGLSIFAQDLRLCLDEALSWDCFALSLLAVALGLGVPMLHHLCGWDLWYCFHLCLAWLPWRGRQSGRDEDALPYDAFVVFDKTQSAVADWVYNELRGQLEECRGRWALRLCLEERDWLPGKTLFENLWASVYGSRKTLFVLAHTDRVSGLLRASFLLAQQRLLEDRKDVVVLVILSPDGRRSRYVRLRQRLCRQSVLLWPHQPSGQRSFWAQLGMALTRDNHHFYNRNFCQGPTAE
UniProt Q53S58: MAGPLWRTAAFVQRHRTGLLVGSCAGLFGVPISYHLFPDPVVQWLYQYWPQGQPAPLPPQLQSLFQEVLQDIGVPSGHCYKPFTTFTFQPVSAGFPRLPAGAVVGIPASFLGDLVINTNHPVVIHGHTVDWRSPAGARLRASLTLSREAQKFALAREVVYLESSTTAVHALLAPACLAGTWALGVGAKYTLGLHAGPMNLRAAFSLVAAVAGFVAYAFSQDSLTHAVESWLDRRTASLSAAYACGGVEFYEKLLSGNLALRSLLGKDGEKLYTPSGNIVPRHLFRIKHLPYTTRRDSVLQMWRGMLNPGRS
UniProt P21980: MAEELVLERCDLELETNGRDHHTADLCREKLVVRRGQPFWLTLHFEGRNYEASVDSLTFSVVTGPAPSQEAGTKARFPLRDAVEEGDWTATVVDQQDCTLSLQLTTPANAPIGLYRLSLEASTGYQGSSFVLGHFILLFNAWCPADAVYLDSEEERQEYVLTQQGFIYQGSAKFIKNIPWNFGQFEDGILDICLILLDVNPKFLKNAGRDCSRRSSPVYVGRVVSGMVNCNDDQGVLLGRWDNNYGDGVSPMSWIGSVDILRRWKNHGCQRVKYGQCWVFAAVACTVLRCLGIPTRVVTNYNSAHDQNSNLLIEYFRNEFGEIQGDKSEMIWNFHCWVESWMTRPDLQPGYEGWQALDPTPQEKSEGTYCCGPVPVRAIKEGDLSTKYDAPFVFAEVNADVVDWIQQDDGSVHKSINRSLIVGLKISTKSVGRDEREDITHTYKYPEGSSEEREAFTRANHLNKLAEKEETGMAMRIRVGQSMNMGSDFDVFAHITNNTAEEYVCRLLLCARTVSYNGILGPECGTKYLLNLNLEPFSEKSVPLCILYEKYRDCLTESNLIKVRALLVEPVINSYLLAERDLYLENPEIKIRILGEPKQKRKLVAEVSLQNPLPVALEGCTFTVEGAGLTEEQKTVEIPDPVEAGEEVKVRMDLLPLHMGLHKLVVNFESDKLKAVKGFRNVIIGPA
UniProt P62072: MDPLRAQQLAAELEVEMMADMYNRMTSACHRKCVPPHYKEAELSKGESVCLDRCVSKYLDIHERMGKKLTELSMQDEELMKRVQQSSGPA
UniProt Q96I45: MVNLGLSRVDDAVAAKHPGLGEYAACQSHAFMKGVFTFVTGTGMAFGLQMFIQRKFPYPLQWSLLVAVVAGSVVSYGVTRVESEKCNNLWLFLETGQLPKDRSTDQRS
UniProt Q7Z7H5: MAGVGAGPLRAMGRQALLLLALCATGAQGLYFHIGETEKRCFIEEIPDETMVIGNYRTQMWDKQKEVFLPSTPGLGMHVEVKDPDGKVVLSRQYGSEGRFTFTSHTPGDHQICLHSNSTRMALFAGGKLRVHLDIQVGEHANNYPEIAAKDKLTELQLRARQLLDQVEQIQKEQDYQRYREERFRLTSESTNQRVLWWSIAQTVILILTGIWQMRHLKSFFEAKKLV
UniProt O15321, whole entry, looked up: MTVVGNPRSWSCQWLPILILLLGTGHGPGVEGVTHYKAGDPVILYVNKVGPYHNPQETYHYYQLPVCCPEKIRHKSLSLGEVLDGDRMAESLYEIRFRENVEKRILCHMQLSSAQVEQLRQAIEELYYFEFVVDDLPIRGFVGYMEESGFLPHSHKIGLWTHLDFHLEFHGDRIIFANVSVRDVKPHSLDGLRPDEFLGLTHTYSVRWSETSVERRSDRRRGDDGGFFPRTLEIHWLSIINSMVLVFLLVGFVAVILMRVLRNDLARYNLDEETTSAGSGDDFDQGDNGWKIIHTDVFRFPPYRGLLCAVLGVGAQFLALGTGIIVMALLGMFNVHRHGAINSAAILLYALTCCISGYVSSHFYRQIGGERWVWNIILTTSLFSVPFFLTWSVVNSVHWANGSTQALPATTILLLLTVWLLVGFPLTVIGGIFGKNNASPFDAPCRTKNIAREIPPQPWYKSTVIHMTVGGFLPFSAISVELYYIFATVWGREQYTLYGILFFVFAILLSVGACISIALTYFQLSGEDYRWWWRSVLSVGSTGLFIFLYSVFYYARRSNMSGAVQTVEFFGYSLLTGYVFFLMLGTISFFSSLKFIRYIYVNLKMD
UniProt O75204: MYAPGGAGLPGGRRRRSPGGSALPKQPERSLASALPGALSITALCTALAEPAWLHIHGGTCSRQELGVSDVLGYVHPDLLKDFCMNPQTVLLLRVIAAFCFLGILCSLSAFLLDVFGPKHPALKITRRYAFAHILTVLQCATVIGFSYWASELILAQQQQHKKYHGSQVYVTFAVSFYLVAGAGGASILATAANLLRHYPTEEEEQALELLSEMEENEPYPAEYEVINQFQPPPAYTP
UniProt P29401: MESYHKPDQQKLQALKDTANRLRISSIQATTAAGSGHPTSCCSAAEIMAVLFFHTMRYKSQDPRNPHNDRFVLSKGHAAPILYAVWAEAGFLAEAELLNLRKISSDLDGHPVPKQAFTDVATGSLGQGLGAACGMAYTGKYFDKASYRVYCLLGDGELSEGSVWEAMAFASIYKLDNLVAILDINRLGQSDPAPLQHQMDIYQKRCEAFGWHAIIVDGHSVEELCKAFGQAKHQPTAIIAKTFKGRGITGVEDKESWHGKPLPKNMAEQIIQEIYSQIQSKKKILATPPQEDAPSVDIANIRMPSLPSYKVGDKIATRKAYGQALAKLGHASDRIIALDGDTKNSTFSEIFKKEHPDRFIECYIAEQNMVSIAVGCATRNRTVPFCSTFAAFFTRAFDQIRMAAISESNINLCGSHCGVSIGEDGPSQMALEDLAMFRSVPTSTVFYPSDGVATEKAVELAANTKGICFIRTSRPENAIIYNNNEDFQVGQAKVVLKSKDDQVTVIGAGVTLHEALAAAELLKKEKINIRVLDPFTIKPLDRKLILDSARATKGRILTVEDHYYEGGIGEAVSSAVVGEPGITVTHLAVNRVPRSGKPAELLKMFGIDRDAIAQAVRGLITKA
UniProt O43493: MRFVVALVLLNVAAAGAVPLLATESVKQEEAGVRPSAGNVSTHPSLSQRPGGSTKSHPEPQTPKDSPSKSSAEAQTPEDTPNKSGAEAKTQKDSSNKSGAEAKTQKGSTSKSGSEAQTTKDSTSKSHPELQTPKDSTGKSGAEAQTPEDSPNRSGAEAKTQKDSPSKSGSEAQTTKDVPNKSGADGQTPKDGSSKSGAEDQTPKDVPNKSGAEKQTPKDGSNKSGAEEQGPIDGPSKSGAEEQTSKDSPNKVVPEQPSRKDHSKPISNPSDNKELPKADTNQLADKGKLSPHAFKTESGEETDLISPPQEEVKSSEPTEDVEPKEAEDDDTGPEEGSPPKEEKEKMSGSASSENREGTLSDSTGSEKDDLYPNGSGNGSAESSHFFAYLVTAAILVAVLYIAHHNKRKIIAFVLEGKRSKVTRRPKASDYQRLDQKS
UniProt Q01085: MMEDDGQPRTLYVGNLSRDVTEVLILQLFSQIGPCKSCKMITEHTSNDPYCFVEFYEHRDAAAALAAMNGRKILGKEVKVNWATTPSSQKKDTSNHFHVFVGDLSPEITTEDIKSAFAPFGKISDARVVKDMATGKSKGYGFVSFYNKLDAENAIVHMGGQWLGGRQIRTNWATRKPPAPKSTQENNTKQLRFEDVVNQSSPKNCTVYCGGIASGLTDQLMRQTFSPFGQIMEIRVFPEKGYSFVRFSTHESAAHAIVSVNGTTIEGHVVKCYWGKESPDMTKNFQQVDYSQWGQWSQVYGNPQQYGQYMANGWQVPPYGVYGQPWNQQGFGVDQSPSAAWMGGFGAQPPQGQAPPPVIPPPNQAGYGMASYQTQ

Some of the results follow.

Compound in the assay: CCN(CCCOc1ccc2c(Nc3cc(CC(=O)Nc4cccc(F)c4)[nH]n3)ncnc2c1)CCOP(=O)(O)O [barasertib]
The experiment in a line: log2 fold change, soluble protein after heating vs DMSO (PISA); higher = thermal stabilisation; K562 lysate, 10 uM; active = over 0.2 and 3.5 SD of the protein, either way, in both replicates (recomputed). A digest of the protocol:
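Quantification was by TMTpro 16plex LC-MS/MS with equalised channel sums, applied to the supernatant after 21,000xg for 90 min. Samples were crude K562 extract at 1 mg/mL protein in PBS pH 7.4 with 1 mM MgCl2, treated with 10 μM compound for 30 min, heated for 3 min across 48°C-58°C, pooled and brought to 0.5% NP-40 at 4°C. Values are log-two fold changes in thermal stability relative to solvent controls, from duplicates.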
On to TLR9 isoform 4 (UniProt Q9NR96), for which the log2 fold change was inactive: 0.053.
As for TMEM177 (UniProt Q53S58), the log2 fold change is inactive: 0.063.
For TGM2 (UniProt P21980) the value was inactive: -0.011; for TIMM10 (UniProt P62072), inactive: 0.01; for TMEM141 (UniProt Q96I45), inactive: 0.054.
As to TMED4 (UniProt Q7Z7H5), the log2 fold change is inactive: -0.119.
To TM9SF1 (UniProt O15321) belongs inactive: 0.081; to TMEM167B (UniProt Q9NRX6), inactive: -0.009.
As to TMEM127 (UniProt O75204), the log2 fold change is inactive: 0.102.
For TKT isoform 2 (UniProt P29401) the value was inactive: -0.032; for TGOLN2 isoform 7 (UniProt O43493), inactive: -0.023; for TIAL1 isoform 2 (UniProt Q01085), inactive: -0.023.
